{
  "source": "PubChem BioAssay AID624297",
  "about": "(National Center for Advancing Translational Sciences (NCATS), 2012)",
  "note": "Screen size: about 340,000 compounds; about 6,200 (1.8%) were called active. The shares of active, inactive and inconclusive entries below differ from those in the screen. Calls come from the whole dose curve; as a rule, active = well fitted activation curve with a large enough effect; inconclusive = small, poorly fitted or top-dose-only effect; inactive = no such curve, though single readings can be large or run the other way. Potencies of inconclusive entries are doubtful fits and often do not repeat. Potency is the fitted concentration of half-maximal effect.",
  "data": [
    {"test": "A quantitative high throughput screen for small molecules that induce DNA re-replication in SW480 colon adenocarcinoma cells; note: nearly all actives have a fitted effect of over 55% in size.", "settings": "Hoechst DNA content imaging, 48 h; series mostly up to 46.1 µM", "in_short": "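Treated cells incubate 48 hr (37 C, 5% CO2), are stained 40 min with Hoechst, and nuclear fluorescence is enumerated; a rise in nuclei with high DNA signal marks re-replication.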", "values": [
      {"smiles": "O=C(NCCN1CCOCC1)Nc1ccccc1", "Potency": "inactive"},
      {"smiles": "Cc1ccc2[nH]c(=O)c3cc(C(=O)NCCN4CCN(C)CC4)sc3c2c1", "Potency": "inactive"},
      {"smiles": "Cc1cc[n+]2n1CC(O)C2", "note": "(stereo not given)", "Potency": "inconclusive: 29.1 µM [activator, single point]"},
      {"smiles": "CCn1c(C)c(C)c2cc(C(=O)N3CCN(c4cccc(C)c4C)CC3)ccc21", "Potency": "inconclusive: 29.1 µM [activator, single point]"},
      {"smiles": "CCN(CC(=O)Nc1ccc(NC(C)=O)cc1)C(=O)CCCc1c[nH]c2ccccc12", "Potency": "inactive"},
      {"smiles": "COc1cc2c(cc1N/C=C(\\C#N)c1nc(-c3ccc(F)cc3)cs1)oc1ccccc12", "Potency": "inconclusive: 1.03 µM [activator, full curve, poor fit]"},
      {"smiles": "COC(=O)[C@]1(C)N[C@H](CN(C)C(=O)NC(C)C)[C@@H]2C(=O)N(Cc3ccccc3)C(=O)[C@@H]21", "Potency": "inconclusive: 6.51 µM [activator, partial curve, poor fit]"},
      {"smiles": "CCn1c(C)c2c([n+]1CC)CC(C)(C)CC2=O", "Potency": "inactive"},
      {"smiles": "Cc1cnn(CCC(=O)NNC(=S)NCC(C)C)c1", "Potency": "inactive"},
      {"smiles": "O=C(Cc1ccc(Cl)cc1)Nc1ccc(C(=O)N2CCOCC2)cc1", "Potency": "inconclusive: 5.8 µM [activator, full curve, poor fit]"},
      {"smiles": "Cc1nn(C)cc1S(=O)(=O)Nc1ncccn1", "Potency": "inactive"},
      {"smiles": "CCOC(=O)C1(Cc2cccc(OC)c2)CCN(Cc2cc(OC)ccc2OC)CC1", "Potency": "active: 23.1 µM"},
      {"smiles": "CSc1nc2ccc(Nc3nc(N4CCOCC4)nc(N4CCOCC4)n3)cc2s1", "Potency": "active: 16.4 µM"},
      {"smiles": "CCCc1cc(=O)oc2cc(C)cc(OCC(=O)Nc3ccccn3)c12", "Potency": "inconclusive: 0.184 µM [activator, full curve, poor fit]"},
      {"smiles": "Cc1ccc2[nH]c(C(=O)NN=C3CCCCC3)c(-c3ccccc3)c2c1", "Potency": "inconclusive: 29.1 µM [activator, single point]"},
      {"smiles": "CC(C)C[C@]1(c2ccccc2)ON(c2ccccc2C(F)(F)F)C1=O", "Potency": "inconclusive: 25.9 µM [activator, partial curve, poor fit]"},
      {"smiles": "Cc1cccc(NC(=S)N/N=C/c2ccc([N+](=O)[O-])s2)c1", "Potency": "inconclusive: 4.47 µM [activator, single point]"},
      {"smiles": "Cc1[nH]c2ccccc2c1C(=O)CSC(=S)N1CCN(C)CC1", "Potency": "inconclusive: 1.16 µM [activator, full curve, poor fit]"},
      {"smiles": "CN(C(=O)c1cccc(NC(=O)Cc2ccc(NC(=O)C3CCN(C(=O)C4CC4)CC3)cc2)c1)C1CC1", "Potency": "inconclusive: 0.92 µM [activator, single point]"},
      {"smiles": "Cn1cc(C(=O)c2ccc(Cl)cc2Cl)cc1C(=O)N/N=C(\\N)COc1ccc(F)cc1", "Potency": "inconclusive: 29.1 µM [activator, single point]"}
    ]}
  ]
}
